PubChem BioAssay AID686938 | Drosophila RNAi Screening Center | 2013
Screen: 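Knock-downs reducing store-operated calcium influx in Drosophila cells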 (primary screen). Cells: Drosophila S2R+ cells. Knock-down reagent: long dsRNA against Drosophila genes, about 0.25 µg dsRNA per well, roughly 10,000 cells. Time to read-out: 5 days of knock-down before the calcium assay. Treatment: thapsigargin (SERCA pump blocker) to empty calcium stores; entry signal taken 4 min after adding it. Measurement: 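Per-well fluo-4 fluorescence in two replicates, unnormalised, measured in resting cells and 4 min after store depletion by the SERCA blocker thapsigargin; ratio of the two present in few wells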. Reading the numbers: calcium entry signal: higher = stronger calcium signal after store depletion; entry to resting ratio: higher = more calcium entry relative to resting level; resting calcium signal: higher = higher resting calcium signal. Call rule: 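Hit if the duplicate-averaged plate z-score for entry over resting signal is under −3; wells with weak total dye signal (Fmax z < −2) or more than 5 off-targets removed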. Calls: active = strongly reduced calcium entry; inactive = no strong reduction.
The deposit covers about 23,000 reagents; below is a random part of those that have a named target and a result. In the full data, 75 (0.33%) are marked active. 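Raw plate signals without normalisation; calls rest on plate z-scores that were not deposited; ratio present for only 364 wells.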 Unmarked entries are inactive. Names joined by + are all predicted targets of the reagent. Not stated in the record: the dose of the treatment.

no.	target	amplicon	calcium entry signal, replicate 1 (fluorescence units)	calcium entry signal, replicate 2 (fluorescence units)	entry to resting ratio	resting calcium signal, replicate 1 (fluorescence units)	resting calcium signal, replicate 2 (fluorescence units)
1	CG11550	DRSC14326	3.26e7	4.80e7	1.9	1.71e7	1.92e7
2	CG5674	DRSC02874	4.64e7	3.90e7		2.23e7	2.00e7
3	CG5674	DRSC23176	5.51e7	3.76e7		2.59e7	1.73e7
4	Ugt317A1	DRSC04470	3.90e7	4.27e7		1.98e7	1.90e7
5	Paf-AHalpha	DRSC20267	3.38e7	3.11e7		1.84e7	1.55e7
6	Cont	DRSC12149	4.54e7	4.99e7		2.05e7	3.63e7
7	pkm	DRSC19674	3.23e7	4.18e7		1.68e7	2.00e7
8	Rbsn-5	DRSC03094	5.83e7			3.51e7	
9	CG6959	DRSC16151	4.24e7	3.77e7		1.92e7	1.94e7
10	Dph3	DRSC14923	3.07e7	2.59e7		1.53e7	1.46e7
11	alpha-Man-IIa	DRSC15393	2.71e7	2.25e7		1.47e7	1.25e7
12	ssp7	DRSC18878	3.58e7	3.02e7		1.79e7	1.61e7
13	RpS3	DRSC16838	1.16e7	1.02e7		8.98e6	8.32e6
14	CG30286	DRSC04070	3.74e7	4.75e7		1.83e7	2.14e7
15	CG34269	DRSC07884	4.45e7	4.74e7		2.49e7	2.16e7
16	Spn88Eb	DRSC16093	3.68e7	5.02e7		1.68e7	2.19e7
17	e(r)	DRSC18768	3.27e7	3.28e7		1.68e7	1.59e7
18	robo2	DRSC00377	3.18e7	3.49e7		1.59e7	1.76e7
19	robo2	DRSC00378	3.54e7	3.59e7		1.66e7	1.74e7
20	robo2	DRSC00686	3.37e7	3.92e7		1.64e7	1.82e7
21	robo2	DRSC00691	5.42e7			3.00e7	
22	Ask1	DRSC16789	3.88e7	3.51e7		5.43e7	1.59e7
23	Ask1	DRSC21697	3.78e7	3.27e7		2.08e7	1.63e7
24	CG7692	DRSC10902	4.47e7	6.26e7		1.99e7	2.64e7
25	Snx6	DRSC03081	4.79e7			3.27e7	
26	CG17574	DRSC06681	3.52e7	7.99e7		1.88e7	3.00e7
27	GckIII	DRSC15729	3.05e7	3.82e7		1.56e7	6.40e7
28	ImpE3	DRSC16716	4.60e7	2.88e7		2.22e7	1.44e7
29	CG14866	DRSC14989	3.39e7	5.61e7		1.64e7	5.73e7
30	Acp36DE	DRSC01860	5.04e7	3.56e7		2.18e7	1.74e7
31	Lrrk	DRSC15816	4.02e7	4.47e7		4.56e7	2.24e7
32	Lrrk	DRSC21971	1.84e7	6.34e7		9.65e6	2.60e7
33	vkg	DRSC03632	3.73e7	4.01e7		1.81e7	1.93e7
34	Sap30	DRSC19916	3.73e7	3.02e7		1.79e7	1.38e7
35	Pp2A-29B	DRSC03400	2.64e7	4.70e7		1.31e7	2.03e7
36	ND-B14.5AL	DRSC11795	3.03e7	5.57e7		1.49e7	2.21e7
37	Etfb	DRSC16324	2.97e7	3.82e7		1.38e7	1.82e7
38	RpS23	DRSC07169	1.30e7	1.69e7		8.34e6	1.05e7
39	Zasp66	DRSC08932	2.71e7	4.31e7		1.49e7	1.89e7
40	Zasp66	DRSC10631	4.39e7	3.36e7		2.80e7	1.52e7
41	Zasp66	DRSC10632	3.15e7	4.44e7		1.50e7	1.90e7
42	CG2116	DRSC18206	2.71e7	2.12e7		1.15e7	1.06e7
43	CG32119	DRSC09248	3.77e7	3.24e7		1.70e7	1.55e7
44	CG32119	DRSC21462	2.70e7	3.22e7		1.57e7	1.30e7
45	CG14323	DRSC14802	3.93e7	5.75e7		1.90e7	6.45e7
46	CG4712	DRSC06882	2.56e7	4.29e7		1.38e7	1.73e7
47	CG4270	DRSC00648	3.20e7	2.80e7		1.55e7	1.35e7
48	Cnx99A + Cnx14D	DRSC16610	3.22e7	4.84e7		1.70e7	2.21e7
49	CG12104	DRSC08254	3.02e7	3.03e7		1.44e7	1.61e7
50	CG31183	DRSC14403	3.65e7	4.66e7		1.67e7	6.00e7
51	CG31183	DRSC15554	2.22e7	2.36e7		1.15e7	1.12e7
52	HipHop	DRSC10734	3.83e7	4.63e7		1.87e7	3.39e7
53	CG14194	DRSC19549	5.47e7	4.60e7		2.77e7	2.12e7
54	CG15564	DRSC15102	4.08e7	5.29e7		2.00e7	2.34e7
55	axed	DRSC08833	2.85e7	5.03e7		1.51e7	2.23e7
56	axed	DRSC10982	3.02e7	4.79e7		1.41e7	2.03e7
57	RpS5a	DRSC20282	1.52e7	2.17e7		9.41e6	1.24e7
58	CG3288	DRSC11745	3.50e7	5.19e7		1.58e7	2.30e7

Entries listed so far whose target name starts with S or s (4):
target	amplicon	calcium entry signal, replicate 1 (fluorescence units)	calcium entry signal, replicate 2 (fluorescence units)	entry to resting ratio	resting calcium signal, replicate 1 (fluorescence units)	resting calcium signal, replicate 2 (fluorescence units)
ssp7	DRSC18878	3.58e7	3.02e7		1.79e7	1.61e7
Spn88Eb	DRSC16093	3.68e7	5.02e7		1.68e7	2.19e7
Snx6	DRSC03081	4.79e7			3.27e7	
Sap30	DRSC19916	3.73e7	3.02e7		1.79e7	1.38e7
